{"source": "PubChem BioAssay AID504808 – Drosophila RNAi Screening Center, 2011", "purpose": "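Genes whose loss lifts activity of an E2F-responsive reporter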 (primary screen)", "cell system": "Drosophila S2 cells", "reagents": "long dsRNA against Drosophila genes", "detection": "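Firefly luciferase driven by E2F sites, normalised to Renilla luciferase on the same minimal promoter, measured by plate reader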", "scale": "E2F firefly: higher = more E2F reporter activity; Renilla normaliser: higher = more normaliser reporter signal", "hit rule": "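a knock-down counted as active when the firefly/Renilla E2F signal rose above 50%, a threshold chosen arbitrarily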", "note": "The screen tested about 21,000 reagents; below is a random part of those with a known target gene and a result. In the full data, 18 (0.084%) got an active call. 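Raw counts without plate normalisation, one of two replicates; the ratio scores behind the calls were not deposited.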 Not given: the amount of reagent, the time to read-out."}
{"gene": "7B2", "amplicon": "DRSC11991", "E2F firefly, rep 1": 1.50e5, "Renilla normaliser, rep 1": 6509, "Outcome": "inactive"}
{"gene": "CG42246", "amplicon": "DRSC17520", "E2F firefly, rep 1": 85068, "Renilla normaliser, rep 1": 2719, "Outcome": "inactive"}
{"gene": "CG6951", "amplicon": "DRSC10755", "E2F firefly, rep 1": 1.40e5, "Renilla normaliser, rep 1": 6822, "Outcome": "inactive"}
{"gene": "CCT6", "amplicon": "DRSC20095", "E2F firefly, rep 1": 8156, "Renilla normaliser, rep 1": 948, "Outcome": "inactive"}
{"gene": "CG7963", "amplicon": "DRSC16355", "E2F firefly, rep 1": 1.39e5, "Renilla normaliser, rep 1": 5880, "Outcome": "inactive"}
{"gene": "CG1835", "amplicon": "DRSC20560", "E2F firefly, rep 1": 1.41e5, "Renilla normaliser, rep 1": 6188, "Outcome": "inactive"}
{"gene": "DIP-kappa", "amplicon": "DRSC01336", "E2F firefly, rep 1": 1.31e5, "Renilla normaliser, rep 1": 7168, "Outcome": "inactive"}
{"gene": "DIP-kappa", "amplicon": "DRSC01337", "E2F firefly, rep 1": 1.38e5, "Renilla normaliser, rep 1": 6383, "Outcome": "inactive"}
{"gene": "Ir94f", "amplicon": "DRSC13621", "E2F firefly, rep 1": 78773, "Renilla normaliser, rep 1": 2706, "Outcome": "inactive"}
{"gene": "pros", "amplicon": "DRSC12856", "E2F firefly, rep 1": 87963, "Renilla normaliser, rep 1": 2731, "Outcome": "inactive"}
{"gene": "pros", "amplicon": "DRSC17032", "E2F firefly, rep 1": 83526, "Renilla normaliser, rep 1": 3700, "Outcome": "inactive"}
{"gene": "Ance-2", "amplicon": "DRSC02539", "E2F firefly, rep 1": 1.00e5, "Renilla normaliser, rep 1": 4626, "Outcome": "inactive"}
{"gene": "Uggt", "amplicon": "DRSC11315", "E2F firefly, rep 1": 66039, "Renilla normaliser, rep 1": 3305, "Outcome": "inactive"}
{"gene": "SPH93", "amplicon": "DRSC02978", "E2F firefly, rep 1": 1.12e5, "Renilla normaliser, rep 1": 4800, "Outcome": "inactive"}
{"gene": "drosha", "amplicon": "DRSC07607", "E2F firefly, rep 1": 3268, "Renilla normaliser, rep 1": 214, "Outcome": "inactive"}
{"gene": "CG8860", "amplicon": "DRSC07291", "E2F firefly, rep 1": 1.04e5, "Renilla normaliser, rep 1": 4757, "Outcome": "inactive"}
{"gene": "brwl", "amplicon": "DRSC01080", "E2F firefly, rep 1": 1.30e5, "Renilla normaliser, rep 1": 5361, "Outcome": "inactive"}
{"gene": "brwl", "amplicon": "DRSC02729", "E2F firefly, rep 1": 64216, "Renilla normaliser, rep 1": 3161, "Outcome": "inactive"}
{"gene": "CG16890", "amplicon": "DRSC01890", "E2F firefly, rep 1": 85676, "Renilla normaliser, rep 1": 3200, "Outcome": "inactive"}
